PubChem BioAssay AID1259308 | NCATS – 2017
This is a random part of about 59,000 reagents tested. Of all reagents, about 1,510 (2.6%) were called active. 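Calls use total luciferase alone and ignore viability, so some active siRNAs may act by altering cell number.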 Entries without a mark were called inactive. The numbers tell different reagents against one gene apart. Not all columns of the deposit are shown.

- Assay: 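Candidate targets for better recombinant protein yield in mammalian cells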 (primary screen)
- System: human HEK293 embryonic kidney cells stably expressing firefly luciferase (HEK-CMV-Luc2-Hygro)
- Knock-down reagent: single siRNA against human genes, 0.8 pmol siRNA per well
- Duration: 72 h
- Measurement: 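Reporter luminescence and viable-cell signal on separate replicate plates, given as percent of non-targeting control and median/MAD z-scores, plus per-cell luciferase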
- Direction: total luciferase, z-score: higher = more reporter protein produced
- Active means: 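An siRNA counts as active if its total luciferase robust z-score exceeds 3; genes with two or more such siRNAs out of three were retested with fresh siRNAs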
- Calls: active = raised luciferase; inactive = no rise

{"Target gene": "KCNT1", "reagent": 1, "total luciferase, z-score": -0.806}
{"Target gene": "KCNT1", "reagent": 2, "total luciferase, z-score": -0.631}
{"Target gene": "KCNT1", "reagent": 3, "total luciferase, z-score": 0.0604}
{"Target gene": "STARD8", "reagent": 1, "total luciferase, z-score": 0.0601}
{"Target gene": "STARD8", "reagent": 2, "total luciferase, z-score": 1.11}
{"Target gene": "STARD8", "reagent": 3, "total luciferase, z-score": 0.187}
{"Target gene": "CCS", "reagent": 1, "total luciferase, z-score": 0.00694}
{"Target gene": "CCS", "reagent": 2, "total luciferase, z-score": -0.258}
{"Target gene": "CCS", "reagent": 3, "total luciferase, z-score": -0.835}
{"Target gene": "ADCK2", "reagent": 1, "total luciferase, z-score": -0.0856}
{"Target gene": "ADCK2", "reagent": 2, "total luciferase, z-score": -0.154}
{"Target gene": "ADCK2", "reagent": 3, "total luciferase, z-score": -0.0399}
{"Target gene": "LRRC4B", "reagent": 1, "total luciferase, z-score": 0.77}
{"Target gene": "LRRC4B", "reagent": 2, "total luciferase, z-score": -0.0491}
{"Target gene": "LRRC4B", "reagent": 3, "total luciferase, z-score": -1.82}
{"Target gene": "GGPS1", "reagent": 1, "total luciferase, z-score": -0.636}
{"Target gene": "GGPS1", "reagent": 2, "total luciferase, z-score": -0.988}
{"Target gene": "GGPS1", "reagent": 3, "total luciferase, z-score": 0.608}
{"Target gene": "H2BC13", "reagent": 1, "total luciferase, z-score": -0.0631}
{"Target gene": "H2BC13", "reagent": 2, "total luciferase, z-score": -2.06}
{"Target gene": "H2BC13", "reagent": 3, "total luciferase, z-score": 0.433}
{"Target gene": "DPT", "reagent": 1, "total luciferase, z-score": -0.744}
{"Target gene": "DPT", "reagent": 2, "total luciferase, z-score": -2.43}
{"Target gene": "DPT", "reagent": 3, "total luciferase, z-score": -0.0136}
{"Target gene": "SPA17", "reagent": 1, "total luciferase, z-score": -0.997}
{"Target gene": "SPA17", "reagent": 2, "total luciferase, z-score": 2.9}
{"Target gene": "SPA17", "reagent": 3, "total luciferase, z-score": -0.412}
{"Target gene": "MC5R", "reagent": 1, "total luciferase, z-score": -0.344}
{"Target gene": "MC5R", "reagent": 2, "total luciferase, z-score": -0.235}
{"Target gene": "MC5R", "reagent": 3, "total luciferase, z-score": -0.0304}
{"Target gene": "SLC6A18", "reagent": 1, "total luciferase, z-score": 0.958}
{"Target gene": "SLC6A18", "reagent": 2, "total luciferase, z-score": 0.204}
{"Target gene": "SLC6A18", "reagent": 3, "total luciferase, z-score": 0.317}

A stretch taken from the entries so far:
{"Target gene": "STARD8", "reagent": 3, "total luciferase, z-score": 0.187}
{"Target gene": "CCS", "reagent": 1, "total luciferase, z-score": 0.00694}
{"Target gene": "CCS", "reagent": 2, "total luciferase, z-score": -0.258}
{"Target gene": "CCS", "reagent": 3, "total luciferase, z-score": -0.835}
{"Target gene": "ADCK2", "reagent": 1, "total luciferase, z-score": -0.0856}
